Measured values taken from PMC6356275.
No constants are given. Whether binding was seen depends on the method and setting. In cells and extracts the contact can be indirect. Where a sequence is shown, tags or fusion partners need not be part of it.

Sequences of proteins named here, by UniProt entry; tags and fusion partners are left off.
UniProt P08362: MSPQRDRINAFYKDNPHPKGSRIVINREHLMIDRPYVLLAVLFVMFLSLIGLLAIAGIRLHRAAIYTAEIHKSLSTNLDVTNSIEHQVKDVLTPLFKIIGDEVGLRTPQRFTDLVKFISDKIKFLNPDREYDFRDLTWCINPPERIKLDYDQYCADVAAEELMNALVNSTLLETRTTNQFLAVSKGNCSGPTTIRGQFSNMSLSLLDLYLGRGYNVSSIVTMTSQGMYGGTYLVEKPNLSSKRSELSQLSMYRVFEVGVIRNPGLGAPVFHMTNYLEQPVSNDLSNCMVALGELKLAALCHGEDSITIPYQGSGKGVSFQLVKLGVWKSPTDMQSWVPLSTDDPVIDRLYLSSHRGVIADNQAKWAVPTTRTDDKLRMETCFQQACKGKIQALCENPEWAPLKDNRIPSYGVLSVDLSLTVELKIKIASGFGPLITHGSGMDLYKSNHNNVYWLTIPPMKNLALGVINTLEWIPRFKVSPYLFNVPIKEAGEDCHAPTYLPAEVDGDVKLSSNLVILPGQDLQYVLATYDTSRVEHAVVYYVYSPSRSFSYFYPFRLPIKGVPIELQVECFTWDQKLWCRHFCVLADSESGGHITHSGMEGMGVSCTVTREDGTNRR

Biological target: T1, KDELR2-Flag (human KDELR2, ER protein retention receptor) (human) (UniProt P33947)
T1 sequence: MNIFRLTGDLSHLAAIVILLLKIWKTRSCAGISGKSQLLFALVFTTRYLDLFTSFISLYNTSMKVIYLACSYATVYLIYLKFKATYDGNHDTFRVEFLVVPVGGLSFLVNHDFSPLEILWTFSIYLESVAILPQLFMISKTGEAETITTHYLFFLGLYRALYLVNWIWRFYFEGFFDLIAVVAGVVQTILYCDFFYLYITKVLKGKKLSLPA
Experiment: co-IP

Question: Which binding does the source give for “measles virus hemagglutinin (H) protein (from UniProt P08362 1-617)” here?
Answer: no binding
